Laboratory results taken from the supplement of paper PMC6411743.
± gives the standard deviation of the averaged measurements. The list shows a part of the results.

By UniProt entry, the sequences of proteins in these tests, tags left out. Where a name states a change or a piece, a line headed by the entry shows the natural chain unless it says otherwise.
UniProt Q96NC0: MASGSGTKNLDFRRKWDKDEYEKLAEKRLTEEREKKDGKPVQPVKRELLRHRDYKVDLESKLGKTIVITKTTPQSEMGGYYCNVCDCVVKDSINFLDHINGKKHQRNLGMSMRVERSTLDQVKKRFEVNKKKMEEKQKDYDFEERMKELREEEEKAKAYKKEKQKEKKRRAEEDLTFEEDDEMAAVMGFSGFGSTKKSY
UniProt Q9BYG3: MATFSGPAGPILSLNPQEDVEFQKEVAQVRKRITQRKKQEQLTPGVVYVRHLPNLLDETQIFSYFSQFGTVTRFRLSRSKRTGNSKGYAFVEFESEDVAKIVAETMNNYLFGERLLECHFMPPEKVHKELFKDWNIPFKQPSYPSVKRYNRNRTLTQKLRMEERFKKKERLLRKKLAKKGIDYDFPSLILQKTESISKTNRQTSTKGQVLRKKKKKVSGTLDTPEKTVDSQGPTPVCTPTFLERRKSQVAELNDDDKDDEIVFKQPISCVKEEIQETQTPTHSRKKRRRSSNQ
UniProt Q96QU8: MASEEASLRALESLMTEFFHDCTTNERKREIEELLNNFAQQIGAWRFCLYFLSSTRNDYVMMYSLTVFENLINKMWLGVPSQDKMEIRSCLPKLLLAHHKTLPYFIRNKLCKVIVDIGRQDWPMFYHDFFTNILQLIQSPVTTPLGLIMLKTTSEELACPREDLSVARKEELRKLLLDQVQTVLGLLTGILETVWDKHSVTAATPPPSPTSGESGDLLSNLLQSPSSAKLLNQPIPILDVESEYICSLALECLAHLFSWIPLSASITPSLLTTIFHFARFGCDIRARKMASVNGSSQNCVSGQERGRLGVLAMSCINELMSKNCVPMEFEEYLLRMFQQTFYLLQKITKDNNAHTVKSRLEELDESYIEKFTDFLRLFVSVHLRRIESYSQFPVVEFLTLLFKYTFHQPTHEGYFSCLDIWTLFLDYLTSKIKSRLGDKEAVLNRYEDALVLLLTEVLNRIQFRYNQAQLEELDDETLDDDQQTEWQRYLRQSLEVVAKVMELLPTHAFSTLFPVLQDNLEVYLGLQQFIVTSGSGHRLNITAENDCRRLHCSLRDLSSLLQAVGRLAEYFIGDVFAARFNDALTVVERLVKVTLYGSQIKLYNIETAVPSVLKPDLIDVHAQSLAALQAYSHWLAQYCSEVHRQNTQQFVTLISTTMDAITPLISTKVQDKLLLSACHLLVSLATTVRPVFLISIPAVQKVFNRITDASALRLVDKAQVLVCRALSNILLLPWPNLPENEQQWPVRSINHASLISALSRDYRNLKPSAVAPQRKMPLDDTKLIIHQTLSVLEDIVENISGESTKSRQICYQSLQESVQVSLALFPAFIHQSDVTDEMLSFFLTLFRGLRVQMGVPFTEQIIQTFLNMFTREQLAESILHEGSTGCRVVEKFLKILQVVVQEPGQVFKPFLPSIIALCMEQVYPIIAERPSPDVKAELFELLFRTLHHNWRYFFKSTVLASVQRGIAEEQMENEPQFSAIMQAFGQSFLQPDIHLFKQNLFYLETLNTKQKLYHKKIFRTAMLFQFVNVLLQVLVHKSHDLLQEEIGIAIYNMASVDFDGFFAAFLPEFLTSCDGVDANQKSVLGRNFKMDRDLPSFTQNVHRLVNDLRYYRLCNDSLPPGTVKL
UniProt Q9BPZ3: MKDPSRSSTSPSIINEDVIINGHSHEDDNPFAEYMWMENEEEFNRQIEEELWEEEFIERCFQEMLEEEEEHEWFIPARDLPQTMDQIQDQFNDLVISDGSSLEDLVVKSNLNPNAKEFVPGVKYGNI
UniProt Q9BTX1: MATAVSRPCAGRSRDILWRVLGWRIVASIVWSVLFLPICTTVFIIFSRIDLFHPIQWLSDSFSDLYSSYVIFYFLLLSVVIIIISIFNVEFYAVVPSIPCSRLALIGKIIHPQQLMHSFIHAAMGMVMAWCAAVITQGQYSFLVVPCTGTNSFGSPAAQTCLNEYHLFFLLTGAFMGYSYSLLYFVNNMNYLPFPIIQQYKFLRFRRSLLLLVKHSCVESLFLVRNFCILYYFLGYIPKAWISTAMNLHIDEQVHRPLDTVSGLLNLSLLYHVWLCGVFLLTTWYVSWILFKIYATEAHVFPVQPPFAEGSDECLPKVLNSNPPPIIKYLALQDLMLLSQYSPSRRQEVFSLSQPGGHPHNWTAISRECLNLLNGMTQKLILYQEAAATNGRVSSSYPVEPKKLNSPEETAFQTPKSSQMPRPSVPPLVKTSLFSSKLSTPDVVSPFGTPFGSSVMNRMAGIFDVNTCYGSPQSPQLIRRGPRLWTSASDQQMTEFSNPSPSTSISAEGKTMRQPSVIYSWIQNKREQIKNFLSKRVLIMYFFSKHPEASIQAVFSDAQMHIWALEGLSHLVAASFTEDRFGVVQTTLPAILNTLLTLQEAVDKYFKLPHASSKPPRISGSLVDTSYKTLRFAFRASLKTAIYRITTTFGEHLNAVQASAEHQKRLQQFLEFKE
UniProt Q9BXW7: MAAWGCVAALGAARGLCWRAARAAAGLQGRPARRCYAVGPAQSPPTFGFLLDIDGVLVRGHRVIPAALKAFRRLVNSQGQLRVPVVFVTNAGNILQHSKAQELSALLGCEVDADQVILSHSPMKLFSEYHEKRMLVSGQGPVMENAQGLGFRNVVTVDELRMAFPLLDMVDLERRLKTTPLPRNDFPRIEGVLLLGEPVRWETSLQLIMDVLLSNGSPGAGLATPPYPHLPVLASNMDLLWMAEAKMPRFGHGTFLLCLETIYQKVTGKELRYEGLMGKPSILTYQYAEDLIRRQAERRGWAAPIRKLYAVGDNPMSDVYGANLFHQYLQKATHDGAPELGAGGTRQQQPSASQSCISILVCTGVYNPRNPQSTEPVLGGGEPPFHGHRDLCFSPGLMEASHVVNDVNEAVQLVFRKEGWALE
UniProt Q9BXL7: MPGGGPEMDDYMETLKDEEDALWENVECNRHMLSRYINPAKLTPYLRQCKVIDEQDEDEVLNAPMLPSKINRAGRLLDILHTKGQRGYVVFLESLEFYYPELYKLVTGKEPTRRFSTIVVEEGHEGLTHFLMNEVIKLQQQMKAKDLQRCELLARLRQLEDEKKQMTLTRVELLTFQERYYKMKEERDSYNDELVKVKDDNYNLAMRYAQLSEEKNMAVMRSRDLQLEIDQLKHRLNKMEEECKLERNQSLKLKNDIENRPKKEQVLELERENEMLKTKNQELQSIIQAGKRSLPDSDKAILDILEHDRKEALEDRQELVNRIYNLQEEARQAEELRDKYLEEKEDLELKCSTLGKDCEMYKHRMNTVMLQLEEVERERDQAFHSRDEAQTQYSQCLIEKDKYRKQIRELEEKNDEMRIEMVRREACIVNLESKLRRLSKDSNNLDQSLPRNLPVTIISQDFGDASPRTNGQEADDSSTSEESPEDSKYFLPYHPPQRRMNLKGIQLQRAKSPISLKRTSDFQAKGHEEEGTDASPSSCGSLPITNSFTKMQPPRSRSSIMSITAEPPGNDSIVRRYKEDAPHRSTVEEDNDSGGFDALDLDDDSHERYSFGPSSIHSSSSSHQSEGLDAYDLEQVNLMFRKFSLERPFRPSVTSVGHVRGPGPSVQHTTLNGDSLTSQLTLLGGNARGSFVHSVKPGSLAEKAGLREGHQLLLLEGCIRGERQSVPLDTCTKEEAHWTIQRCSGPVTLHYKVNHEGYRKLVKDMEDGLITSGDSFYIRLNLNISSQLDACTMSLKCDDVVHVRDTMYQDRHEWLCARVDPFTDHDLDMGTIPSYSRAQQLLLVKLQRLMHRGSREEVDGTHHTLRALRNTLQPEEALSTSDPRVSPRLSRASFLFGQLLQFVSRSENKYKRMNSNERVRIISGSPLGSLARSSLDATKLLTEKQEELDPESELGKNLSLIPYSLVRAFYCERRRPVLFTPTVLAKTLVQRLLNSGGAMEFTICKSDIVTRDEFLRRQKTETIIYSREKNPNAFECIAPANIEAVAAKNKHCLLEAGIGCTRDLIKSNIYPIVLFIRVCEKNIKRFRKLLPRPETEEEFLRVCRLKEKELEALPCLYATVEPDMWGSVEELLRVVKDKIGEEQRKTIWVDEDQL
UniProt Q99661: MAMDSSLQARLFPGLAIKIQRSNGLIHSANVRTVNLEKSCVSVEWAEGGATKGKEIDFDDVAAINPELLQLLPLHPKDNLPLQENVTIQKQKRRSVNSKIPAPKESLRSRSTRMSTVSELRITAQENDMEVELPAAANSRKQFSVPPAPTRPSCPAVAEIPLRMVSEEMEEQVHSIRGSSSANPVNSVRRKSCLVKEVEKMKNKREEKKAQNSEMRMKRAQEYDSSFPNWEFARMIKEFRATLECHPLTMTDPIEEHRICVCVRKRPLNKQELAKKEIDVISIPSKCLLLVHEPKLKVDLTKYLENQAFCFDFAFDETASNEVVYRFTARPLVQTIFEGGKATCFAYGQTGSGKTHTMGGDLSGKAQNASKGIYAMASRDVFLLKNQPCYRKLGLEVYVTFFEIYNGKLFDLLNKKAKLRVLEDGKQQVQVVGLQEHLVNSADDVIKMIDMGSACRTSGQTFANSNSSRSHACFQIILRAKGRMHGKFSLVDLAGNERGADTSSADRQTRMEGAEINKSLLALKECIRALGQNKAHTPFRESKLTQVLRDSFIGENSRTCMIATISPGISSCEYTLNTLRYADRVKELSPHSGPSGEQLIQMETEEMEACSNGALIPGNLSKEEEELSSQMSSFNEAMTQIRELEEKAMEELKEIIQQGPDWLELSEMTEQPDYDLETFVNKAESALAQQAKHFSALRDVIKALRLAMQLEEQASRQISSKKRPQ
UniProt Q96KB5: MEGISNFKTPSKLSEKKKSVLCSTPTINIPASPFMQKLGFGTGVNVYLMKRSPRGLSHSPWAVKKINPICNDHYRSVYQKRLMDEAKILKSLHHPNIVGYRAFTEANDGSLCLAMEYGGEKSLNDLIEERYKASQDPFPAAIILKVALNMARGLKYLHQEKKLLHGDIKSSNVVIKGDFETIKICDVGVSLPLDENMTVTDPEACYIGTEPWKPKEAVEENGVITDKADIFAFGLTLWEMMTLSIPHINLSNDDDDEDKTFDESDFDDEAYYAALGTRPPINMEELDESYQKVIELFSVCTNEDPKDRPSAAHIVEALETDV
UniProt Q9BVC6: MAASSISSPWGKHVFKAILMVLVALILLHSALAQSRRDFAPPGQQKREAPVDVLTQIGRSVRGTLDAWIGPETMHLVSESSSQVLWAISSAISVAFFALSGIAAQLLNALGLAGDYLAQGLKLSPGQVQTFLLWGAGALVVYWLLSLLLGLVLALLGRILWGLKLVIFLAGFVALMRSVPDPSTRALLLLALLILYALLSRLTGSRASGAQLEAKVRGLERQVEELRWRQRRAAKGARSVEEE
UniProt Q9BVC3, whole entry: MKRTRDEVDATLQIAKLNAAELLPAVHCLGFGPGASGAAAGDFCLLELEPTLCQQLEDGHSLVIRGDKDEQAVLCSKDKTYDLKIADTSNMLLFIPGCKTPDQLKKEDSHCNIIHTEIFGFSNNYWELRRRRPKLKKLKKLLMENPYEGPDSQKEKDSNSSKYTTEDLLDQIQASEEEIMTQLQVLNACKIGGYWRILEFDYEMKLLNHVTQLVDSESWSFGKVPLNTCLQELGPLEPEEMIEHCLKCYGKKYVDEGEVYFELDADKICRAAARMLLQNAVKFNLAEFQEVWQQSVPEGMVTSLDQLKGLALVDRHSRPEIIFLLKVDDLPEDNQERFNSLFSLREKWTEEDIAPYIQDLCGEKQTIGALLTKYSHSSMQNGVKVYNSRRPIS
UniProt Q9BQA1, whole entry: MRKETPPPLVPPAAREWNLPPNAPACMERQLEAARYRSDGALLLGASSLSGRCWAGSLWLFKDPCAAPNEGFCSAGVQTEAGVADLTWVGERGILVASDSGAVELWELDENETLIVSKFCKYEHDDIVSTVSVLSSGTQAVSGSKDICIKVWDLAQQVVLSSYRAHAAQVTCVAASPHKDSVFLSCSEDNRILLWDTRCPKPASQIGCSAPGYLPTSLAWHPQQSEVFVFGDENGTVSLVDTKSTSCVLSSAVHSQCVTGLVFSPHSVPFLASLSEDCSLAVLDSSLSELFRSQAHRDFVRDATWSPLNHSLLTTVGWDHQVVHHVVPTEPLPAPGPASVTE
UniProt Q9BSD7: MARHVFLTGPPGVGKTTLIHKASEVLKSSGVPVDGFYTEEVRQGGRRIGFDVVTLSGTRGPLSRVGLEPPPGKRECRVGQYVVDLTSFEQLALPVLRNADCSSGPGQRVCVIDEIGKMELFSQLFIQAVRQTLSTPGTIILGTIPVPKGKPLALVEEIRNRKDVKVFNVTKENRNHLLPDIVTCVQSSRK
UniProt Q9BTY7: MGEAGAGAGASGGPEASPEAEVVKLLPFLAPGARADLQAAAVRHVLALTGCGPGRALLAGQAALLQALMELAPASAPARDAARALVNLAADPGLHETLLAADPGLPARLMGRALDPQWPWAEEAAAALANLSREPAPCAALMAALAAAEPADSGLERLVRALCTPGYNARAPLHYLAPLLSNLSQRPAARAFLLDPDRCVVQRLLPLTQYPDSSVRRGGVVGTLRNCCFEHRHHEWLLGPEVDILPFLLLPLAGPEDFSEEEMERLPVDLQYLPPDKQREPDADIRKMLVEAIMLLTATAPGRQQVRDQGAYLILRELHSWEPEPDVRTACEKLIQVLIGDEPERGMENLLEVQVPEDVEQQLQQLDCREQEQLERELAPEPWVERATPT

Compound: Nc1nc2c(ncn2[C@@H]2O[C@H](COP(=O)(O)OP(=O)(O)OP(=O)(O)O)[C@@H](O)[C@H]2O)c(=O)[nH]1 [guanosine triphosphate]
Experiment: NP40-soluble protein abundance relative to vehicle (solubility fold change) (ratio); higher = more soluble protein in presence of GTP
Outline: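 Jurkat crude lysate prepared with a Dounce homogeniser was treated at eight concentrations spanning 0.1 to 10 mM, 10 min at room temperature then 3 min at 37 °C. Solubilisation with 0.8% NP40 and benzonase and ultracentrifugation preceded TMT labelling of the supernatant for LC-MS/MS. Fold change against the detergent-processed vehicle was determined per replicate from vsn-normalised intensities, across three independent experiments.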

Row | Target | NP40-soluble protein abundance (concentration: 0.1mM) | NP40-soluble protein abundance (concentration: 0.5mM) | NP40-soluble protein abundance (concentration: 1mM) | NP40-soluble protein abundance (concentration: 2mM) | NP40-soluble protein abundance (concentration: 4mM) | NP40-soluble protein abundance (concentration: 6mM) | NP40-soluble protein abundance (concentration: 8mM) | NP40-soluble protein abundance (concentration: 10mM)
1 | UniProt Q96LW7-2 | 0.899 ± 0.12 | 1.06 ± 0.11 | 1.04 ± 0.2 | 1.11 ± 0.12 | 1.14 ± 0.16 | 1.12 ± 0.096 | 0.965 ± 0.17 | 1.08 ± 0.15
2 | RBM4B (UniProt Q9BQ04) | 1.03 ± 0.37 | 1.08 ± 0.16 | 1.03 ± 0.23 | 1.07 ± 0.24 | 1.05 ± 0.21 | 1.11 ± 0.2 | 1.04 ± 0.16 | 1.06 ± 0.15
3 | UniProt Q9BUH6 | 0.989 ± 0.014 | 0.973 ± 0.034 | 1.04 ± 0.034 | 1.04 ± 0.062 | 1.05 ± 0.032 | 1.07 ± 0.023 | 1.03 ± 0.036 | 1.05 ± 0.084
4 | UniProt Q96NC0 | 0.912 ± 0.053 | 1 ± 0.078 | 0.981 ± 0.083 | 1 ± 0.079 | 0.974 ± 0.079 | 1.01 ± 0.079 | 1.03 ± 0.092 | 1.08 ± 0.078
5 | KATNAL1 (UniProt Q9BW62) | 0.94 ± 0.12 | 0.944 ± 0.078 | 0.918 ± 0.025 | 0.864 ± 0.041 | 0.913 ± 0.18 | 0.884 ± 0.15 | 0.925 ± 0.017 | 0.835 ± 0.028
6 | UniProt Q9BYG3 | 1.01 ± 0.018 | 1.04 ± 0.042 | 1.02 ± 0.046 | 1.07 ± 0.067 | 1.07 ± 0.071 | 1.12 ± 0.035 | 1.12 ± 0.061 | 1.18 ± 0.036
7 | UniProt Q96RL7 and related entries | 1 ± 0.12 | 1.06 ± 0.037 | 1.04 ± 0.075 | 1 ± 0.11 | 0.977 ± 0.14 | 1 ± 0.13 | 1 ± 0.094 | 0.949 ± 0.052
8 | UniProt Q96QU8 and related entries | 1.07 ± 0.027 | 1.08 ± 0.075 | 0.941 ± 0.084 | 0.956 ± 0.036 | 0.987 ± 0.052 | 0.938 ± 0.077 | 0.921 ± 0.02 | 0.897 ± 0.07
9 | UniProt Q96NW4 and related entries | 1.06 ± 0.018 | 1.04 ± 0.11 | 0.9944 ± 0.0048 | 1.02 ± 0.02 | 0.987 ± 0.013 | 1.03 ± 0.011 | 1.02 ± 0.029 | 0.989 ± 0.048
10 | UniProt Q96TC7 | 1.02 ± 0.032 | 0.977 ± 0.03 | 1.1 ± 0.028 | 1.07 ± 0.08 | 1.04 ± 0.047 | 1.08 ± 0.1 | 1.07 ± 0.11 | 1.03 ± 0.09
11 | GTPBP4 (UniProt Q9BZE4) | 1.08 ± 0.03 | 1.05 ± 0.048 | 1.06 ± 0.017 | 1.13 ± 0.033 | 1.17 ± 0.033 | 1.2 ± 0.043 | 1.15 ± 0.043 | 1.17 ± 0.055
12 | UniProt Q9BXW9 and related entries | 1.04 ± 0.036 | 1 ± 0.037 | 1 ± 0.029 | 1.04 ± 0.05 | 1.04 ± 0.055 | 0.971 ± 0.052 | 1.05 ± 0.045 | 0.993 ± 0.033
13 | PAIP2 (UniProt Q9BPZ3) | 0.963 ± 0.037 | 0.958 ± 0.05 | 0.938 ± 0.043 | 0.88 ± 0.053 | 0.907 ± 0.037 | 0.949 ± 0.036 | 1.03 ± 0.051 | 0.99 ± 0.057
14 | LIMD2 (UniProt Q9BT23) | 0.881 ± 0.0095 | 0.895 ± 0.079 | 1.03 ± 0.047 | 1.01 ± 0.11 | 0.925 ± 0.099 | 1 ± 0.15 | 0.98 ± 0.097 | 1.03 ± 0.065
15 | TM9SF2 (UniProt Q99805) | 1.08 ± 0.11 | 1.09 ± 0.15 | 0.972 ± 0.1 | 0.99 ± 0.12 | 0.965 ± 0.14 | 0.94 ± 0.11 | 0.91 ± 0.048 | 0.903 ± 0.085
16 | UniProt Q9BTX1 and related entries | 1.03 ± 0.081 | 0.982 ± 0.043 | 0.981 ± 0.078 | 1.03 ± 0.092 | 1 ± 0.086 | 1 ± 0.091 | 1.05 ± 0.041 | 1.04 ± 0.1

Row | Target | NP40-soluble protein abundance (concentration: 0.1mM) | NP40-soluble protein abundance (concentration: 0.5mM) | NP40-soluble protein abundance (concentration: 1mM) | NP40-soluble protein abundance (concentration: 2mM) | NP40-soluble protein abundance (concentration: 4mM) | NP40-soluble protein abundance (concentration: 6mM) | NP40-soluble protein abundance (concentration: 8mM) | NP40-soluble protein abundance (concentration: 10mM)
17 | MRPL1 (UniProt Q9BYD6) | 0.987 ± 0.016 | 1.02 ± 0.079 | 1.02 ± 0.061 | 1.05 ± 0.12 | 1.05 ± 0.14 | 1.05 ± 0.11 | 0.995 ± 0.083 | 0.965 ± 0.068
18 | SPEN (UniProt Q96T58) | 1.07 ± 0.044 | 1.085 ± 0.005 | 1.12 ± 0.026 | 1.17 ± 0.08 | 1.23 ± 0.1 | 1.22 ± 0.092 | 1.33 ± 0.2 | 1.3 ± 0.16
19 | UniProt Q9BXW7 and related entries | 1.01 ± 0.049 | 1.01 ± 0.075 | 0.863 ± 0.06 | 0.917 ± 0.11 | 0.858 ± 0.06 | 0.86 ± 0.085 | 0.804 ± 0.051 | 0.85 ± 0.035
20 | TRIM56 (UniProt Q9BRZ2) | 0.984 ± 0.064 | 0.984 ± 0.086 | 0.984 ± 0.027 | 0.995 ± 0.078 | 0.976 ± 0.15 | 1.02 ± 0.1 | 1.06 ± 0.066 | 1.03 ± 0.11
21 | UniProt Q96SK2 and related entries | 0.947 ± 0.017 | 1.01 ± 0.024 | 1.04 ± 0.055 | 0.931 ± 0.017 | 0.971 ± 0.042 | 1.13 ± 0.039 | 1.29 ± 0.015 | 1.301 ± 0.01
22 | CARD11 (UniProt Q9BXL7) | 0.892 ± 0.1 | 0.973 ± 0.097 | 0.912 ± 0.095 | 0.955 ± 0.089 | 0.878 ± 0.059 | 0.906 ± 0.055 | 0.849 ± 0.12 | 0.92 ± 0.035
23 | KIF2C (UniProt Q99661) | 0.995 ± 0.016 | 0.9951 ± 0.0088 | 0.958 ± 0.028 | 0.973 ± 0.029 | 0.976 ± 0.017 | 0.963 ± 0.013 | 0.985 ± 0.017 | 0.966 ± 0.042
24 | UniProt Q96KB5 and related entries | 0.976 ± 0.015 | 0.9865 ± 0.0065 | 0.92 ± 0.028 | 0.898 ± 0.044 | 0.881 ± 0.039 | 0.903 ± 0.045 | 0.868 ± 0.058 | 0.874 ± 0.072
25 | UniProt Q99707 and related entries | 0.997 ± 0.019 | 1.01 ± 0.062 | 0.987 ± 0.015 | 1.01 ± 0.033 | 0.973 ± 0.022 | 0.965 ± 0.0072 | 0.928 ± 0.023 | 0.927 ± 0.029
26 | TMEM109 (UniProt Q9BVC6) | 0.87 ± 0.032 | 0.882 ± 0.041 | 0.922 ± 0.043 | 0.9 ± 0.015 | 0.9002 ± 0.0038 | 0.91 ± 0.0094 | 0.873 ± 0.07 | 0.907 ± 0.012
27 | DSCC1 (UniProt Q9BVC3) | 1.03 ± 0.071 | 1.06 ± 0.031 | 1.02 ± 0.019 | 1.05 ± 0.011 | 1.08 ± 0.037 | 1.05 ± 0.052 | 1.05 ± 0.027 | 1.04 ± 0.022
28 | WDR77 (UniProt Q9BQA1) | 1.08 ± 0.053 | 1.01 ± 0.022 | 0.984 ± 0.038 | 1.05 ± 0.019 | 1.12 ± 0.086 | 1.04 ± 0.017 | 1.08 ± 0.038 | 1.02 ± 0.013
29 | UniProt Q9BYM8 and related entries | 1.04 ± 0.029 | 0.946 ± 0.061 | 0.961 ± 0.054 | 0.962 ± 0.05 | 1.02 ± 0.1 | 0.995 ± 0.14 | 0.94 ± 0.016 | 0.897 ± 0.036
30 | UniProt Q9BSD7 | 1.02 ± 0.055 | 1.01 ± 0.024 | 0.99 ± 0.023 | 0.962 ± 0.035 | 0.985 ± 0.074 | 0.974 ± 0.062 | 0.966 ± 0.032 | 0.9308 ± 0.0056
31 | EXOC2 (UniProt Q96KP1) | 1.01 ± 0.0031 | 1.04 ± 0.066 | 0.979 ± 0.023 | 1 ± 0.064 | 1.03 ± 0.058 | 0.98 ± 0.083 | 1.02 ± 0.067 | 1 ± 0.045
32 | UniProt Q9BTY7 | 0.967 ± 0.086 | 0.856 ± 0.056 | 1.07 ± 0.088 | 1.05 ± 0.033 | 1.03 ± 0.082 | 0.998 ± 0.049 | 0.924 ± 0.18 | 1.03 ± 0.14

Single records, from the list above. Order of values: NP40-soluble protein abundance (concentration: 0.1mM)	NP40-soluble protein abundance (concentration: 0.5mM)	NP40-soluble protein abundance (concentration: 1mM)	NP40-soluble protein abundance (concentration: 2mM)	NP40-soluble protein abundance (concentration: 4mM)	NP40-soluble protein abundance (concentration: 6mM)	NP40-soluble protein abundance (concentration: 8mM)	NP40-soluble protein abundance (concentration: 10mM)
SPEN (UniProt Q96T58) reads 1.07 ± 0.044	1.085 ± 0.005	1.12 ± 0.026	1.17 ± 0.08	1.23 ± 0.1	1.22 ± 0.092	1.33 ± 0.2	1.3 ± 0.16
UniProt Q9BSD7 reads 1.02 ± 0.055	1.01 ± 0.024	0.99 ± 0.023	0.962 ± 0.035	0.985 ± 0.074	0.974 ± 0.062	0.966 ± 0.032	0.9308 ± 0.0056
